Reference: publication PMC10219652, “Insights into cargo sorting by SNX32 and its role in neurite outgrowth” (eLife, 2023)

Sequences of proteins named here, by UniProt entry; tags and fusion partners are left off. Residues count along the entry.
UniProt P11717, residues 41-2491: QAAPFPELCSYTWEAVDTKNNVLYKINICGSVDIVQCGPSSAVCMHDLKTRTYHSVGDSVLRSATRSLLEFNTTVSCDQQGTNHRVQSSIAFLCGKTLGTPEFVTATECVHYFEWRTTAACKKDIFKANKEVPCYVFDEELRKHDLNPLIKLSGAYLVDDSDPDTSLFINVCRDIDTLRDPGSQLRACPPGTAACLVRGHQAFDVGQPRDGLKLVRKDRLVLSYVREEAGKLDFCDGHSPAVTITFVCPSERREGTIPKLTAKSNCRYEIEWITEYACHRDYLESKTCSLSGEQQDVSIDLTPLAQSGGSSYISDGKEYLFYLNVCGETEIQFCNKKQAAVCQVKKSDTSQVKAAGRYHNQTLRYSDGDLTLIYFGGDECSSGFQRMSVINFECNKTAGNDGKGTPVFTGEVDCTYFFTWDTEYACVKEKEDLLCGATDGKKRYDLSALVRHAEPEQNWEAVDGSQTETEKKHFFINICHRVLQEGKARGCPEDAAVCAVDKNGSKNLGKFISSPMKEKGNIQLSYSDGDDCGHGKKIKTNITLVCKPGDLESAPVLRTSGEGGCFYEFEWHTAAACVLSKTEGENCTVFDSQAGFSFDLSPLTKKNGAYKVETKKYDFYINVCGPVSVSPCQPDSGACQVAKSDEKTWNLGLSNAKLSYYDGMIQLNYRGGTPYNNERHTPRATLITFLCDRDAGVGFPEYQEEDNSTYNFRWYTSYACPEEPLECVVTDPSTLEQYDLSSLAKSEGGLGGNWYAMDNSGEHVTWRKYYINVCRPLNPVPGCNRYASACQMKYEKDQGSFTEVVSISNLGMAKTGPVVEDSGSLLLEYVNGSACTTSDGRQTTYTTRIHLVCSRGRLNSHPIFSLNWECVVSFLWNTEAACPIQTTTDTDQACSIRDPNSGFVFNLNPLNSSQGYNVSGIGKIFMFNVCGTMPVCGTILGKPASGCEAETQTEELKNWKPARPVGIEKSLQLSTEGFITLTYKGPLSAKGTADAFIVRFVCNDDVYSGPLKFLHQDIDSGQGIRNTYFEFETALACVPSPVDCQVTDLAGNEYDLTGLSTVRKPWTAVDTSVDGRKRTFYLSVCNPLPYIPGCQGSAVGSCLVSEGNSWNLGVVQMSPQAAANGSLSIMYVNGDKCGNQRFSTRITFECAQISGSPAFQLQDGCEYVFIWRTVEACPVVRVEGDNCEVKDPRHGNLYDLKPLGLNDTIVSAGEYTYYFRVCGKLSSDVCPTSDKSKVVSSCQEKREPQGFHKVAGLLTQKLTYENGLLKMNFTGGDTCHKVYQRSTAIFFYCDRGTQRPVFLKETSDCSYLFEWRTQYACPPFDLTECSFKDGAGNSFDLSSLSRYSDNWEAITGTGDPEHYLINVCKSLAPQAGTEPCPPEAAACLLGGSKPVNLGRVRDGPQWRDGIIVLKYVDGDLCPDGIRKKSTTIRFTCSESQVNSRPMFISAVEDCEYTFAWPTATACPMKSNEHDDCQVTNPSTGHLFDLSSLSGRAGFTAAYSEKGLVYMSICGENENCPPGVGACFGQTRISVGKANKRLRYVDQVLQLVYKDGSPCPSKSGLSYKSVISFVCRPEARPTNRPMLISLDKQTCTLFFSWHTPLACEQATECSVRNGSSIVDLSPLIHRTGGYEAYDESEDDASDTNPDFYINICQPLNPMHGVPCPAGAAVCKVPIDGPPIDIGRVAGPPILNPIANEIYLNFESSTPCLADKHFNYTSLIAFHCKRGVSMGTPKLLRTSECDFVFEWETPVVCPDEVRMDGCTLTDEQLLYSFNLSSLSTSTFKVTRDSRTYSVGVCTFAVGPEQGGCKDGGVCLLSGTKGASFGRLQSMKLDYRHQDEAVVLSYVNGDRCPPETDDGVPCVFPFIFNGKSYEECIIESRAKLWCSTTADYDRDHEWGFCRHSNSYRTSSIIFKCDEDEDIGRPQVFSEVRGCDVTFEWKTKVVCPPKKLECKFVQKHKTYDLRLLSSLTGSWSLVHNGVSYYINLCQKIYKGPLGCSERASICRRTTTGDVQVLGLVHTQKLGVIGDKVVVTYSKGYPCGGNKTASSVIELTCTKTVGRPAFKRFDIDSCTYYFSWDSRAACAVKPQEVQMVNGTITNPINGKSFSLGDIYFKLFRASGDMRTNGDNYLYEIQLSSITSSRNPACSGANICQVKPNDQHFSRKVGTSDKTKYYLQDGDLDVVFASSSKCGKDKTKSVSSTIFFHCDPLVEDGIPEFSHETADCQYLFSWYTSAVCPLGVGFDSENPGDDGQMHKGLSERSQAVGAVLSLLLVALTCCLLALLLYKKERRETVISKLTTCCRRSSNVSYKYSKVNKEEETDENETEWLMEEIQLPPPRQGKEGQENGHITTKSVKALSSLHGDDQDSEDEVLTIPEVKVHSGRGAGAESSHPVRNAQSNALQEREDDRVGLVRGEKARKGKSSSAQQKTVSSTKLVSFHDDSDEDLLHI

Target: T1, GFP-tagged SNX32 stably expressed in SHSY5Y cells (UniProt Q86XE0)
T1 sequence: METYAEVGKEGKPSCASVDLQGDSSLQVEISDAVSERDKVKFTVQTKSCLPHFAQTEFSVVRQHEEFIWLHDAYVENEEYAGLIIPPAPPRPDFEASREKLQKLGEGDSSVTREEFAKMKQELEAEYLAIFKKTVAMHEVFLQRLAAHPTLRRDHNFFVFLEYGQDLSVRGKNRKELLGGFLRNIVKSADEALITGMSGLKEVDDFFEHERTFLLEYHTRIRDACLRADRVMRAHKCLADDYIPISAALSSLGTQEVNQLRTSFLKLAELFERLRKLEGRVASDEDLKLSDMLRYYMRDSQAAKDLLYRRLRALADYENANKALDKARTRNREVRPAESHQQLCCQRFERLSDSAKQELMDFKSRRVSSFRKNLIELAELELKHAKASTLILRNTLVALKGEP
Assay: affinity purification with mass spectrometry; SILAC-based differential proteomics: SH-SY-5Y cells stably expressing GFP, GFP-SNX32 or GFP-SNX32 F131D, lysed in 50 mM Tris-HCl, 0.5% NP-40, GFP trap (ChromoTek), LC-MS/MS on an Orbitrap Velos

binding | Substance
binds | Basigin (BSG) (from UniProt P35613-2) (receptor)
binds | Cation-Independent Mannose-6-Phosphate Receptor (CIMPR) (from UniProt P11717 41-2491)

These are yes or no findings as the source states them, for the method shown. In cells and extracts the contact can be indirect. A yes stands for co-enrichment or nearness to the bait. Other partners may have been found. Sequences can lack the tags named with a protein.
